{
  "source": "the supplement of paper PMC8728848",
  "experiment_in_all_cases": "glycan array binding signal (z-score within array); higher = stronger binding",
  "conditions_in_all_cases": "glycan notation: IUPAC condensed, linker removed",
  "key": {"[1]": {"target": "Neu5Gc(a2-8)Neu5Gc(a2-3)Gal(b1-4)GlcNAc(b1-3)Gal(b1-4)GlcNAc", "in_short": "(§1)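 Negative Z-scores can be read as non-binding. The Z-score is calculated within each array and then averaged across arrays of one protein sequence at different concentrations or buffers and across linkers. Arrays, 3228 in all, were curated from the Consortium for Functional Glycomics database and kept only where the protein sequence was available.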"}, "[2]": {"target": "Neu5Gc(a2-8)Neu5Gc(a2-6)Gal(b1-4)GlcNAc", "in_short": "as §1"}, "[3]": {"target": "Neu5Gc(b2-6)Gal(b1-4)GlcNAc", "in_short": "as §1"}},
  "note": "The list shows a part of the results.",
  "data": [
    {"binder": "LlpA (Burkholderia cenocepacia) (protein) MGSSHHHHHHSSGLVPRGSHKILGSNETLSAGNVVYSDNGQYHLAMQTDGNLVVYGPTGAVWQSQTSGSGGNRAVMQGDGNLVIYRADNTAAWSSKTAHPGAFLAVQDDGNVVIYWPRPAWASNTSDPATQQSAESKYLASGSTMSAGQTVTVAQYMLVFQADGNLVLYKNGGNPIWSTGTQGKGATYAVMQSDGNFVIYAGSTALWSTKTNGANGAQLVLQSDGNLVIYAPTAAWSTKFGLVTAPTSTSTSNNGPGSGICVGVCPPHPLNGNPFSPVGVGTTGLGFPTPGYPGAAF", "values": [
      {"measurement": "glycan array binding signal (z-score)", "setting": "[1]", "result": -1.22},
      {"measurement": "glycan array binding signal (z-score)", "setting": "[2]", "result": 0.117},
      {"measurement": "glycan array binding signal (z-score)", "setting": "[3]", "result": 0.828}
    ]}
  ]
}
